The other results are listed elsewhere or left out.
Assays:
Test in all cases: glycan array binding signal (z-score within array); higher = stronger binding
Settings in all cases: glycan notation: IUPAC condensed, linker removed
[1] = target: Gal(b1-4)GlcNAc(b1-3)Gal(b1-4)[Fuc(a1-3)]GlcNAc(b1-3)Gal(b1-4)[Fuc(a1-3)]GlcNAc
Summary of the method: (§1)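 The binding signal is a Z-score computed within each array. Data were drawn from 3228 arrays in the Consortium for Functional Glycomics database, restricted to those with a known protein sequence. Scores were averaged over arrays of the same protein sequence at different concentrations or buffers, and over linkers, and negative values can be taken as non-binding.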

[2] = target: Gal(b1-4)GlcNAc(b1-3)GalNAc
Summary of the method: as §1

[3] = target: Gal(b1-4)GlcNAc(b1-3)[Fuc(a1-3)GlcNAc(b1-6)]Gal(b1-4)Glc
Summary of the method: as §1

[4] = target: Gal(b1-4)GlcNAc(b1-3)[Gal(b1-4)GlcNAc(b1-6)]Gal(b1-4)GlcNAc
Summary of the method: as §1

[5] = target: Gal(b1-4)GlcNAc(b1-3)[GlcNAc(b1-6)]Gal(b1-4)GlcNAc
Summary of the method: as §1

[6] = target: Gal(b1-4)GlcNAc(b1-6)Gal(b1-4)GlcNAc
Summary of the method: as §1

[7] = target: Gal(b1-4)GlcNAc(b1-6)GalNAc
Summary of the method: as §1

[8] = target: Gal(b1-4)GlcNAc(b1-6)[Gal(b1-3)]GalNAc
Summary of the method: as §1

[9] = target: Gal(b1-4)GlcNAc(b1-6)[Gal(b1-4)GlcNAc(b1-3)]GalNAc
Summary of the method: as §1

Gal(b1-4)GlcNAc6P = target: Gal(b1-4)GlcNAc6P
Summary of the method: as §1

Gal(b1-6)Gal = target: Gal(b1-6)Gal
Summary of the method: as §1

Gal3S(b1-3)GalNAc = target: Gal3S(b1-3)GalNAc
Summary of the method: as §1

Gal3S(b1-3)GlcNAc = target: Gal3S(b1-3)GlcNAc
Summary of the method: as §1

[10] = target: Gal3S(b1-3)[Fuc(a1-4)]GlcNAc
Summary of the method: as §1

Gal3S(b1-4)Glc = target: Gal3S(b1-4)Glc
Summary of the method: as §1

Gal3S(b1-4)Glc6S = target: Gal3S(b1-4)Glc6S
Summary of the method: as §1

Gal3S(b1-4)GlcNAc = target: Gal3S(b1-4)GlcNAc
Summary of the method: as §1

[11] = target: Gal3S(b1-4)[Fuc(a1-3)]Glc6S
Summary of the method: as §1

[12] = target: Gal3S(b1-4)[Fuc(a1-3)]GlcNAc
Summary of the method: as §1

[13] = target: Gal3S(b1-4)[Fuc(a1-3)]GlcNAc6S
Summary of the method: as §1

Gal3S4S(b1-4)GlcNAc = target: Gal3S4S(b1-4)GlcNAc
Summary of the method: as §1

Gal3S6S(b1-4)GlcNAc = target: Gal3S6S(b1-4)GlcNAc
Summary of the method: as §1

Gal3S6S(b1-4)GlcNAc6S = target: Gal3S6S(b1-4)GlcNAc6S
Summary of the method: as §1

Gal4S(b1-4)GlcNAc = target: Gal4S(b1-4)GlcNAc
Summary of the method: as §1

Gal4S6S(b1-4)GlcNAc = target: Gal4S6S(b1-4)GlcNAc
Summary of the method: as §1

Gal6P(b1-4)GlcNAc = target: Gal6P(b1-4)GlcNAc
Summary of the method: as §1

Gal6S(b1-3)GlcNAc = target: Gal6S(b1-3)GlcNAc
Summary of the method: as §1

Gal6S(b1-3)GlcNAc6S = target: Gal6S(b1-3)GlcNAc6S
Summary of the method: as §1

Gal6S(b1-4)Glc = target: Gal6S(b1-4)Glc
Summary of the method: as §1

Gal6S(b1-4)Glc6S = target: Gal6S(b1-4)Glc6S
Summary of the method: as §1

Gal6S(b1-4)GlcNAc = target: Gal6S(b1-4)GlcNAc
Summary of the method: as §1

Gal6S(b1-4)GlcNAc6S = target: Gal6S(b1-4)GlcNAc6S
Summary of the method: as §1

GalNAc(a1-3)Gal = target: GalNAc(a1-3)Gal
Summary of the method: as §1

GalNAc(a1-3)GalNAc = target: GalNAc(a1-3)GalNAc
Summary of the method: as §1

[14] = target: GalNAc(a1-3)GalNAc(a1-3)Gal(a1-4)Gal(b1-4)GlcNAc
Summary of the method: as §1

[15] = target: GalNAc(a1-3)GalNAc(b1-3)Gal(a1-4)Gal(b1-4)Glc
Summary of the method: as §1

GalNAc(b1-3)Gal = target: GalNAc(b1-3)Gal
Summary of the method: as §1

[16] = target: GalNAc(b1-3)Gal(a1-4)Gal(b1-4)GlcNAc
Summary of the method: as §1

[17] = target: GalNAc(b1-3)Gal(a1-4)Gal(b1-4)GlcNAc(b1-3)Gal(b1-4)Glc
Summary of the method: as §1

[18] = target: GalNAc(b1-3)Gal(a1-6)Gal(b1-4)Glc
Summary of the method: as §1

GalNAc(b1-3)GalNAc = target: GalNAc(b1-3)GalNAc
Summary of the method: as §1

GalNAc(b1-3)GlcNAc = target: GalNAc(b1-3)GlcNAc
Summary of the method: as §1

GalNAc(b1-4)Gal(b1-4)Glc = target: GalNAc(b1-4)Gal(b1-4)Glc
Summary of the method: as §1

GalNAc(b1-4)GlcNAc = target: GalNAc(b1-4)GlcNAc
Summary of the method: as §1

[19] = target: GalNAc(b1-4)GlcNAc(b1-2)Man
Summary of the method: as §1

B1: Pbx2CASH domain (Cryptococcus neoformans) (protein)
chain: GIPGPNRLYRLSGPIIFTAADQEIATYGYPTGSERAVLRVEGRNTATAIQGDCRRCARVSVKNLVVDGNRKKLGRMRDFQLATGLVVLGGNEGQSIQNSWIKNPRGFTAIHIREGDKLQCSGARVEKNEIGPVGEEYDPEKDGDDPEMSPLGRPLADGVSIACRDSFIRDNTFRDNTDAAIVVYCSPGTLIHA
[1]
  glycan array binding signal (z-score): -0.056
[2]
  glycan array binding signal (z-score): -0.57
[3]
  glycan array binding signal (z-score): -0.704
[4]
  glycan array binding signal (z-score): -0.282
[5]
  glycan array binding signal (z-score): -0.507
[6]
  glycan array binding signal (z-score): -0.67
[7]
  glycan array binding signal (z-score): 1.19
[8]
  glycan array binding signal (z-score): -0.606
[9]
  glycan array binding signal (z-score): 0.304
Gal(b1-4)GlcNAc6P
  glycan array binding signal (z-score): -0.136
Gal(b1-6)Gal
  glycan array binding signal (z-score): 0.238
Gal3S(b1-3)GalNAc
  glycan array binding signal (z-score): -0.637
Gal3S(b1-3)GlcNAc
  glycan array binding signal (z-score): -0.72
[10]
  glycan array binding signal (z-score): -0.056
Gal3S(b1-4)Glc
  glycan array binding signal (z-score): 0.134
Gal3S(b1-4)Glc6S
  glycan array binding signal (z-score): 0.057
Gal3S(b1-4)GlcNAc
  glycan array binding signal (z-score): -0.389
[11]
  glycan array binding signal (z-score): 1.16
[12]
  glycan array binding signal (z-score): -0.272
[13]
  glycan array binding signal (z-score): -0.289
Gal3S4S(b1-4)GlcNAc
  glycan array binding signal (z-score): -0.502
Gal3S6S(b1-4)GlcNAc
  glycan array binding signal (z-score): -0.382
Gal3S6S(b1-4)GlcNAc6S
  glycan array binding signal (z-score): 1.44
Gal4S(b1-4)GlcNAc
  glycan array binding signal (z-score): -0.599
Gal4S6S(b1-4)GlcNAc
  glycan array binding signal (z-score): -0.521
Gal6P(b1-4)GlcNAc
  glycan array binding signal (z-score): 0.549
Gal6S(b1-3)GlcNAc
  glycan array binding signal (z-score): -0.043
Gal6S(b1-3)GlcNAc6S
  glycan array binding signal (z-score): 0.572
Gal6S(b1-4)Glc
  glycan array binding signal (z-score): -0.273
Gal6S(b1-4)Glc6S
  glycan array binding signal (z-score): 3.18
Gal6S(b1-4)GlcNAc
  glycan array binding signal (z-score): -0.006
Gal6S(b1-4)GlcNAc6S
  glycan array binding signal (z-score): 0.11
GalNAc(a1-3)Gal
  glycan array binding signal (z-score): -0.153
GalNAc(a1-3)GalNAc
  glycan array binding signal (z-score): -0.991
[14]
  glycan array binding signal (z-score): -0.392
[15]
  glycan array binding signal (z-score): -0.232
GalNAc(b1-3)Gal
  glycan array binding signal (z-score): 0.143
[16]
  glycan array binding signal (z-score): -0.2
[17]
  glycan array binding signal (z-score): -0.602
[18]
  glycan array binding signal (z-score): -0.686
GalNAc(b1-3)GalNAc
  glycan array binding signal (z-score): 0.027
GalNAc(b1-3)GlcNAc
  glycan array binding signal (z-score): -0.437
GalNAc(b1-4)Gal(b1-4)Glc
  glycan array binding signal (z-score): 0.407
GalNAc(b1-4)GlcNAc
  glycan array binding signal (z-score): -0.463
[19]
  glycan array binding signal (z-score): -0.167

— the supplement of paper PMC8728848
